Results on five molecules are retold here after paper PMC11231609.

Sequences of proteins named here, by UniProt entry; tags and fusion partners are left off. Residues count along the entry.
UniProt Q16602, residues 23-461: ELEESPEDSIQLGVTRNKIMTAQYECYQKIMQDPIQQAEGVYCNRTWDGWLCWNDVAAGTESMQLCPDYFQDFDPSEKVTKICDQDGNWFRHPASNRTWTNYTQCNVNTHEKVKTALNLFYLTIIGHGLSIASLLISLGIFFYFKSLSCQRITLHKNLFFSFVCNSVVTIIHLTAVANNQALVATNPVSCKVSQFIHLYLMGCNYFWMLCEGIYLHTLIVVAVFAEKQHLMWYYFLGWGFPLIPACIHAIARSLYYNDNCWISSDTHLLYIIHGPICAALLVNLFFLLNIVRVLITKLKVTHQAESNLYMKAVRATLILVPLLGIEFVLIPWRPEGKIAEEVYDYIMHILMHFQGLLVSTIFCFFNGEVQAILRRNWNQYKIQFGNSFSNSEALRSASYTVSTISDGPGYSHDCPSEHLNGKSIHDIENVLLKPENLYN
UniProt Q9Y5S2: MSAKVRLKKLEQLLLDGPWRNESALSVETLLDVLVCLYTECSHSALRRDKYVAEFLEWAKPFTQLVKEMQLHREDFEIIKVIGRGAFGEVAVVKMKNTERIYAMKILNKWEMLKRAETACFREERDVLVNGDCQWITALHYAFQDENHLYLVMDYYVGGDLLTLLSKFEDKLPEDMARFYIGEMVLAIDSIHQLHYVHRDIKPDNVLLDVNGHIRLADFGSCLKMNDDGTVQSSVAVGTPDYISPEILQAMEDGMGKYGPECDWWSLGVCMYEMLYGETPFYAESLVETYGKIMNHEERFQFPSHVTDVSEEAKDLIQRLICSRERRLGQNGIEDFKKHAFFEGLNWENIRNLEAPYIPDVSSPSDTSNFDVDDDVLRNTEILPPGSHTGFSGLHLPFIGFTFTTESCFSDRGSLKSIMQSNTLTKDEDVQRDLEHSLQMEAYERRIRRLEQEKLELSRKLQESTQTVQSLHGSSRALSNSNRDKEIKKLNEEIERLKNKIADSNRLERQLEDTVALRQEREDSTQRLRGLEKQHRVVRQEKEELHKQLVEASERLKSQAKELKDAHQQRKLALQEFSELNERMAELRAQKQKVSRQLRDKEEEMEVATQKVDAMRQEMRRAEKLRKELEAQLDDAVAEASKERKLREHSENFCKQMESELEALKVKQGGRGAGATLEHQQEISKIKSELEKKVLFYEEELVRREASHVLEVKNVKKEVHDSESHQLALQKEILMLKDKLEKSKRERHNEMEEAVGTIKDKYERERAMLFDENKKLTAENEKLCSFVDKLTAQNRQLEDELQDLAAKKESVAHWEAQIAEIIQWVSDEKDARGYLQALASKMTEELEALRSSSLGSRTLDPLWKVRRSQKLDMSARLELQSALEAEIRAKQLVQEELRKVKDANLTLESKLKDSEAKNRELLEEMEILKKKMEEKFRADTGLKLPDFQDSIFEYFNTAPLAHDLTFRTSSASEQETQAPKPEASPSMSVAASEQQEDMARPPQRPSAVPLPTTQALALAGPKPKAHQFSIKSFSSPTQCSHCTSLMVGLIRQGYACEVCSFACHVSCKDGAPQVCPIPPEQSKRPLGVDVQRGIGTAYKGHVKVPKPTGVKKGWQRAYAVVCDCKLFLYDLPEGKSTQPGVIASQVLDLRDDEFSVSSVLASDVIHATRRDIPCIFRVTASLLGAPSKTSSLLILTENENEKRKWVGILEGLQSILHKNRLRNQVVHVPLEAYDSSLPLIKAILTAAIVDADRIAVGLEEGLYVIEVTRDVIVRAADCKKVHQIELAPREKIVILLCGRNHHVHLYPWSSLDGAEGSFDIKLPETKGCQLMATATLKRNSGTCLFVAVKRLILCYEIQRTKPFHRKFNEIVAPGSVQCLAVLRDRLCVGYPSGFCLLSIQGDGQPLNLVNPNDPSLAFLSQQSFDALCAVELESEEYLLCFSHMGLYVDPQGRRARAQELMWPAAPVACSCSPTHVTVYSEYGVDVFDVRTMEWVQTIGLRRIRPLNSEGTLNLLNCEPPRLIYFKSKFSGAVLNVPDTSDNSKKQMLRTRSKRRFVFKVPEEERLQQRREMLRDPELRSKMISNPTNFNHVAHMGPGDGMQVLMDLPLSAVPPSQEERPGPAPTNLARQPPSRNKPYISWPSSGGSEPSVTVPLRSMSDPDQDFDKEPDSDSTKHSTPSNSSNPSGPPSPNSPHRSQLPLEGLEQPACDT
UniProt Q13557: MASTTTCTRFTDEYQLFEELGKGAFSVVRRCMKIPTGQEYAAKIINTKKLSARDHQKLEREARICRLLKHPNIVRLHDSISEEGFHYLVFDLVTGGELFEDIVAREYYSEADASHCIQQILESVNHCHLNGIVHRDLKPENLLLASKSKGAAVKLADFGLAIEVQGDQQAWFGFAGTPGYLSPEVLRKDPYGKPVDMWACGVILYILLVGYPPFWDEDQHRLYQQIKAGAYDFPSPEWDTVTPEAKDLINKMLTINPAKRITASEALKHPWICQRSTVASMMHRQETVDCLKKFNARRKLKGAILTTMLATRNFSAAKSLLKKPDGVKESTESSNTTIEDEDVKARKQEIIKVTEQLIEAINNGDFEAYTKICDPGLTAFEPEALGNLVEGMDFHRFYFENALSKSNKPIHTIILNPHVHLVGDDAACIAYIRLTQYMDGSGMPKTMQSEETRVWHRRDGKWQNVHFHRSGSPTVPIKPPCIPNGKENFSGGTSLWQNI

For experiment [1], the target named is calcitonin receptor-like receptor (human (endogenous in HDLEC)) (UniProt Q16602). The experiment in a line: proximity ligation; in situ PLA (Duolink) on paraformaldehyde-fixed HDLEC; rabbit anti-CLR serum LN-1436 with a mouse mAb against the partner; isotype IgG controls; 20 cells per group.
Experiment [2] has the same target. The experiment in a line: co-IP; IP of endogenous CLR from HDLEC lysate with LN-1436, control IP with preimmune serum; immunoblotting for Nup93 (Fig. S4). On the technique in general: Immunoblotting shows a protein as a band on a membrane.

No constants are given. Whether binding was seen depends on the method and setting. Binding seen in cells or lysates may run through a third protein. Some binding calls cover weakened binding; strength is not graded here.

With “valosin-containing protein (from UniProt P55072 1-806)”, the binding entry in experiment [1] was “binds”.

In the case of “cell division control protein 42 (CDC42) binding protein kinase beta (from UniProt Q9Y5S2 1-1711) (enzyme)”, in experiment [1], the binding entry is on record as “binds”.

As for “calcium/calmodulin-dependent protein kinase 2 delta (from UniProt Q13557 1-499) (enzyme)”, in experiment [1], the binding result is recorded as “binds”.

B1: nucleoporin 93 (protein, UniProt Q8N1F7 1-819)
chain: MDTEGFGELLQQAEQLAAETEGISELPHVERNLQEIQQAGERLRSRTLTRTSQETADVKASVLLGSRGLDISHISQRLESLSAATTFEPLEPVKDTDIQGFLKNEKDNALLSAIEESRKRTFGMAEEYHRESMLVEWEQVKQRILHTLLASGEDALDFTQESEPSYISDVGPPGRSSLDNIEMAYARQIYIYNEKIVNGHLQPNLVDLCASVAELDDKSISDMWTMVKQMTDVLLTPATDALKNRSSVEVRMEFVRQALAYLEQSYKNYTLVTVFGNLHQAQLGGVPGTYQLVRSFLNIKLPAPLPGLQDGEVEGHPVWALIYYCMRCGDLLAASQVVNRAQHQLGEFKTWFQEYMNSKDRRLSPATENKLRLHYRRALRNNTDPYKRAVYCIIGRCDVTDNQSEVADKTEDYLWLKLNQVCFDDDGTSSPQDRLTLSQFQKQLLEDYGESHFTVNQQPFLYFQVLFLTAQFEAAVAFLFRMERLRCHAVHVALVLFELKLLLKSSGQSAQLLSHEPGDPPCLRRLNFVRLLMLYTRKFESTDPREALQYFYFLRDEKDSQGENMFLRCVSELVIESREFDMILGKLENDGSRKPGVIDKFTSDTKPIINKVASVAENKGLFEEAAKLYDLAKNADKVLELMNKLLSPVVPQISAPQSNKERLKNMALSIAERYRAQGISANKFVDSTFYLLLDLITFFDEYHSGHIDRAFDIIERLKLVPLNQESVEERVAAFRNFSDEIRHNLSEVLLATMNILFTQFKRLKGTSPSSSSRPQRVIEDRDSQLRSQARTLITFAGMIPYRTSGDTNARLVQMEVLMN
As for B1, the binding result in experiment [2] and in experiment [1] was “binds” throughout.

B2: iron regulatory protein 1 (protein, UniProt P21399 1-889)
chain: MSNPFAHLAEPLDPVQPGKKFFNLNKLEDSRYGRLPFSIRVLLEAAIRNCDEFLVKKQDIENILHWNVTQHKNIEVPFKPARVILQDFTGVPAVVDFAAMRDAVKKLGGDPEKINPVCPADLVIDHSIQVDFNRRADSLQKNQDLEFERNRERFEFLKWGSQAFHNMRIIPPGSGIIHQVNLEYLARVVFDQDGYYYPDSLVGTDSHTTMIDGLGILGWGVGGIEAEAVMLGQPISMVLPQVIGYRLMGKPHPLVTSTDIVLTITKHLRQVGVVGKFVEFFGPGVAQLSIADRATIANMCPEYGATAAFFPVDEVSITYLVQTGRDEEKLKYIKKYLQAVGMFRDFNDPSQDPDFTQVVELDLKTVVPCCSGPKRPQDKVAVSDMKKDFESCLGAKQGFKGFQVAPEHHNDHKTFIYDNTEFTLAHGSVVIAAITSCTNTSNPSVMLGAGLLAKKAVDAGLNVMPYIKTSLSPGSGVVTYYLQESGVMPYLSQLGFDVVGYGCMTCIGNSGPLPEPVVEAITQGDLVAVGVLSGNRNFEGRVHPNTRANYLASPPLVIAYAIAGTIRIDFEKEPLGVNAKGQQVFLKDIWPTRDEIQAVERQYVIPGMFKEVYQKIETVNESWNALATPSDKLFFWNSKSTYIKSPPFFENLTLDLQPPKSIVDAYVLLNLGDSVTTDHISPAGNIARNSPAARYLTNRGLTPREFNSYGSRRGNDAVMARGTFANIRLLNRFLNKQAPQTIHLPSGEILDVFDAAERYQQAGLPLIVLAGKEYGAGSSRDWAAKGPFLLGIKAVLAESYERIHRSNLVGMGVIPLEYLPGENADALGLTGQERYTIIIPENLKPQMKVQVKLDTGKTFQAVMRFDTDVELTYFLNGGILNYMIRKMAK
On to B2, for which the binding entry in experiment [1] is given as “binds”.
